Measurements from the supplement of paper PMC6078165.
The reference is the same well before dosing, and untreated signal decays as well.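 Labels refer to human fibroblasts, largely primary: uterine (C12385, HUF), lung (H6013), bone (Hs27A), adrenal (HADF), skin (WS1), plus mammary HMF and breast cancer-associated Hs343T. Cancer lines are basal-like or mesenchymal-like triple-negative breast cancer. The paper counts as hits responses shifting over 3x the replicate standard deviation. The tissue of the other fibroblasts is not given here.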

Test system: Hs578T
Assay: relative JC-1 red fluorescence (viability) vs pre-drug, coculture with fibroblast (fraction); higher = more viable cancer cells
Method: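 JC-1 labelled TNBC cells cocultured 1:1 (1,500 cells each) with CellTrace Violet stained primary or stromal fibroblasts in 384-well plates in FluoroBrite medium, treated with one of 42 anticancer drugs at 0.1, 1, 10 or 100 uM. JC-1 red fluorescence (mitochondrial integrity in cancer cells only) was read by plate reader every 8 h for 72 h. Values are normalised to each well's pre-drug value. The stock of one drug was tenfold lower, so its dose labels may be too high.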

O=C(CCCCCCC(=O)Nc1ccccc1)NO [Vorinostat]
relative JC-1 red fluorescence
Conditions | 8 h | 16 h | 24 h | 32 h | 40 h | 48 h | 56 h | 64 h | 72 h
1 µM, coculture fibroblast: WS1 | – | – | – | – | – | – | – | – | 0.439
10 µM, coculture fibroblast: C12385 | 0.8418 | 0.691 | 0.616 | 0.528 | 0.44 | 0.394 | 0.359 | 0.337 | 0.328
10 µM, coculture fibroblast: H6013 | 0.8743 | 0.74 | 0.667 | 0.618 | 0.57 | 0.557 | 0.545 | 0.548 | 0.541
10 µM, coculture fibroblast: H6019 | 0.761 | 0.6597 | 0.602 | 0.499 | 0.456 | 0.44 | 0.424 | 0.428 | 0.434
10 µM, coculture fibroblast: H6076 | 0.9019 | 0.791 | 0.701 | 0.654 | 0.586 | 0.5566 | 0.521 | 0.518 | 0.514
10 µM, coculture fibroblast: H6231 | 0.912 | 0.798 | 0.656 | 0.611 | 0.528 | 0.491 | 0.445 | 0.428 | 0.407
10 µM, coculture fibroblast: HADF | 0.8678 | 0.71 | 0.606 | 0.516 | 0.459 | 0.424 | 0.386 | 0.371 | 0.342
10 µM, coculture fibroblast: HCFa | 0.814 | 0.667 | 0.576 | 0.496 | 0.422 | 0.406 | 0.395 | 0.404 | 0.396
10 µM, coculture fibroblast: HCPF | 0.928 | 0.795 | 0.736 | 0.67 | 0.581 | 0.528 | 0.4853 | 0.44615 | 0.4214
10 µM, coculture fibroblast: HHSteC | 0.8877 | 0.741 | 0.668 | 0.599 | 0.539 | 0.514 | 0.499 | 0.495 | 0.485
10 µM, coculture fibroblast: HMF | 0.919 | 0.788 | 0.69 | 0.642 | 0.553 | 0.506 | 0.46 | 0.428 | 0.406
10 µM, coculture fibroblast: HPFa | 0.9237 | 0.7789 | 0.6849 | 0.5997 | 0.539 | 0.495 | 0.465 | 0.453 | 0.43
10 µM, coculture fibroblast: HUF | 0.871 | 0.668 | 0.615 | 0.504 | 0.434 | 0.399 | 0.371 | 0.377 | 0.3749
10 µM, coculture fibroblast: Hs27A | 0.8879 | 0.763 | 0.67 | 0.582 | 0.509 | 0.492 | 0.461 | 0.453 | 0.427
10 µM, coculture fibroblast: Hs343T | 0.8811 | 0.843 | 0.751 | 0.695 | 0.6033 | 0.567 | 0.514 | 0.481 | 0.465
10 µM, coculture fibroblast: WS1 | 0.8117 | 0.651 | 0.555 | 0.435 | 0.358 | 0.325 | 0.287 | 0.274 | 0.262
100 µM, coculture fibroblast: C12385 | 0.833 | 0.687 | 0.596 | 0.501 | 0.431 | 0.387 | 0.353 | 0.332 | 0.326
100 µM, coculture fibroblast: H6013 | 0.89 | 0.718 | 0.647 | 0.582 | 0.5157 | 0.477 | 0.455 | 0.467 | 0.456
100 µM, coculture fibroblast: H6019 | 0.779 | 0.654 | 0.601 | 0.483 | 0.449 | 0.444 | 0.434 | 0.452 | 0.454
100 µM, coculture fibroblast: H6076 | 0.923 | 0.772 | 0.7092 | 0.664 | 0.581 | 0.546 | 0.515 | 0.51 | 0.53
100 µM, coculture fibroblast: H6231 | 0.891 | 0.78 | 0.701 | 0.663 | 0.586 | 0.552 | 0.527 | 0.517 | 0.52
100 µM, coculture fibroblast: HADF | 0.886 | 0.771 | 0.664 | 0.563 | 0.48 | 0.437 | 0.398 | 0.385 | 0.362
100 µM, coculture fibroblast: HCFa | 0.858 | 0.702 | 0.628 | 0.526 | 0.446 | 0.429 | 0.41 | 0.419 | 0.41
100 µM, coculture fibroblast: HCPF | 0.898 | 0.7951 | 0.7116 | 0.659 | 0.568 | 0.522 | 0.505 | 0.462 | 0.447
100 µM, coculture fibroblast: HHSteC | 0.899 | 0.722 | 0.634 | 0.541 | 0.471 | 0.432 | 0.406 | 0.397 | 0.378
100 µM, coculture fibroblast: HMF | 0.915 | 0.779 | 0.703 | 0.652 | 0.557 | 0.49 | 0.455 | 0.43 | 0.418
100 µM, coculture fibroblast: HPFa | 0.897 | 0.738 | 0.632 | 0.542 | 0.478 | 0.448 | 0.416 | 0.408 | 0.384
100 µM, coculture fibroblast: HUF | 0.8743 | 0.732 | 0.663 | 0.5521 | 0.503 | 0.4775 | – | 0.466 | 0.473
100 µM, coculture fibroblast: Hs27A | 0.9002 | 0.8249 | 0.713 | 0.645 | 0.566 | 0.535 | 0.498 | 0.492 | 0.453
100 µM, coculture fibroblast: Hs343T | 0.901 | 0.757 | 0.683 | 0.623 | 0.527 | 0.47 | 0.423 | 0.391 | 0.39
100 µM, coculture fibroblast: WS1 | 0.8111 | 0.666 | 0.555 | 0.436 | 0.358 | 0.335 | 0.31 | 0.301 | 0.297

relative JC-1 red fluorescence
Conditions | 8 h | 16 h | 24 h | 32 h | 40 h | 48 h | 56 h | 64 h | 72 h
10 µM | 0.8687 | 0.754 | 0.686 | 0.629 | 0.55 | 0.506 | 0.494 | 0.476 | 0.492
100 µM | 0.909 | 0.779 | 0.687 | 0.598 | 0.495 | 0.446 | 0.421 | 0.411 | 0.422
